Measurements taken from patent US20240101687A1.

B1: 996 minibody (Fc fusion, not shown: a dimerising Fc or GST)
chain: QSVLTQPPSASGTPGQRVTISCTGSSSNIGSNAVNWYQQLPGTAPKLLIYSNSHRPSGVPDRFSGSKSGTSASLAISGLRSEDEADYYCATWDYSLSGYVFGCGTKLTVLGGGGSGGGGSGGGGSGGGGSEVQLLESGGGLVQTGGSLRLSCAASGFTFSSYDMSWVRQAPGKCLEWVSGIYHDGSSTYYADSVQGRFTISRDNSKNTLYLQMNSLRAEDTAVYYCARVSGTLSEPYAFFFNAMDVWGQGTLVTVSS
B2: 1226 minibody (Fc fusion, not shown: a dimerising Fc or GST)
chain: QSVPTQPPSASGTPGQRVTISCTGSSSNIGNNTVSWYQQLPGTAPKLLIYYDNHRPSGVPDRFSGSKSGTSASLAISGLRSEDEADYYCGSWDASLNGYVFGCGTKLTVLGGGGSGGGGSGGGGSGGGGSEVQLLESGGGLVQPGGSLRLSCAVSGFTFSNYDMSWVRQAPGKCLEWVSSISPDGGSKYYADSVKGRFTISRDNSKNTLYLQMNSLRAEDTAVYYCARDGGTHWLSLFDYWGQGTLVTVSS
B3: 1564 minibody (Fc fusion, not shown: a dimerising Fc or GST)
chain: QSVLTQPPSASGTPGQRVTISCTGSSSNIGSNDVSWYQQLPGTAPKLLIYANSNRPSGVSDRFSGSKSGTSASLAISGLRSEDEADYYCGAWDDSLNGYVFGCGTKLTVLGGGGSGGGGSGGGGSGGGGSEVQLLESGGGLVQPGGSLRLSCAASGFTFSSYDMSWVRQAPGKCLEWVSAISYDNGNTYYADSVKGRFTISRDNSKNTLYLQMNSLRAEDTAVYYCAKGVLTTLMNWFDYWGQGTLVTVSS

Biological target: IGFIIR
Test: ELISA, IGFIIR coated, minibody titrated 0.000256-20 nM, Abs. at 450 nm

| Binder | binding |
| --- | --- |
| B1 | no binding (tested: 20 nM) |
| B2 | no binding (tested: 20 nM) |
| B3 | no binding (tested: 20 nM) |

Results are given in words; binding and its absence hold for the method and conditions named.
